Read-outs that look alike come from different tables or passages of the source. These are yes or no findings as the source states them, for the method shown. Binding seen in cells or lysates may run through a third protein. Some binding calls cover weakened binding; strength is not graded here. Sequences can lack the tags named with a protein.

The chains behind the UniProt entries cited, without tags or fusion partners.
UniProt Q9UQE7: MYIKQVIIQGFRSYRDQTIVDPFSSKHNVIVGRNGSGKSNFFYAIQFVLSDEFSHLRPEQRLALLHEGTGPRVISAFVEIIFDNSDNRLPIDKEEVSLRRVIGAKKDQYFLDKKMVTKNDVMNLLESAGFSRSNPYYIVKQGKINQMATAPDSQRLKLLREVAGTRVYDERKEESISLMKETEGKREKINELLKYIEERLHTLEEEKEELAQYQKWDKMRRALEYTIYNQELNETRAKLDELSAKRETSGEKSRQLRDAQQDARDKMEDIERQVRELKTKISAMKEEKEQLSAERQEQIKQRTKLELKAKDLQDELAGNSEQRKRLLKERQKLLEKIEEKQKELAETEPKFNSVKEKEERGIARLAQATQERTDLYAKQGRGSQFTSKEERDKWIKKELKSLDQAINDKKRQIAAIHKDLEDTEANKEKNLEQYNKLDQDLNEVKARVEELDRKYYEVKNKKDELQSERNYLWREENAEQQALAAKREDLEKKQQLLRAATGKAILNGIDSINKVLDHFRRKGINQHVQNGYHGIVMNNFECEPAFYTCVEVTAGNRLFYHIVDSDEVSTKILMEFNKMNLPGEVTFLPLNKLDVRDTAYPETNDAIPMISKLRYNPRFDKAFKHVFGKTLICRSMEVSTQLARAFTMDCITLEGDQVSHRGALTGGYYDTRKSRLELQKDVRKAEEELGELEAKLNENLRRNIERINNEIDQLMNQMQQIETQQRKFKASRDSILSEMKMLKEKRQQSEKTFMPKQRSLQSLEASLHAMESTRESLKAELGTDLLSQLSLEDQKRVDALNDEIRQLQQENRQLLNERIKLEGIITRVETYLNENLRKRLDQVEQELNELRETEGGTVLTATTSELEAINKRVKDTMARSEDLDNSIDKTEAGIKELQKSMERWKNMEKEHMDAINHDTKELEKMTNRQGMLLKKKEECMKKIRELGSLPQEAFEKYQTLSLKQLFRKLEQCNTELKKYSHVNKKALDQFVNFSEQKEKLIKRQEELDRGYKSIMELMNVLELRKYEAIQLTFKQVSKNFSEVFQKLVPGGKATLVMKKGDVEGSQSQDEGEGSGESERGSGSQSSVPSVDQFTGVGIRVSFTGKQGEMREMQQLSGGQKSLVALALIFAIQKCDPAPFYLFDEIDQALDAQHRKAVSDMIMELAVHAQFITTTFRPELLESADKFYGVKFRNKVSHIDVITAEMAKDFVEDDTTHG
UniProt P53350: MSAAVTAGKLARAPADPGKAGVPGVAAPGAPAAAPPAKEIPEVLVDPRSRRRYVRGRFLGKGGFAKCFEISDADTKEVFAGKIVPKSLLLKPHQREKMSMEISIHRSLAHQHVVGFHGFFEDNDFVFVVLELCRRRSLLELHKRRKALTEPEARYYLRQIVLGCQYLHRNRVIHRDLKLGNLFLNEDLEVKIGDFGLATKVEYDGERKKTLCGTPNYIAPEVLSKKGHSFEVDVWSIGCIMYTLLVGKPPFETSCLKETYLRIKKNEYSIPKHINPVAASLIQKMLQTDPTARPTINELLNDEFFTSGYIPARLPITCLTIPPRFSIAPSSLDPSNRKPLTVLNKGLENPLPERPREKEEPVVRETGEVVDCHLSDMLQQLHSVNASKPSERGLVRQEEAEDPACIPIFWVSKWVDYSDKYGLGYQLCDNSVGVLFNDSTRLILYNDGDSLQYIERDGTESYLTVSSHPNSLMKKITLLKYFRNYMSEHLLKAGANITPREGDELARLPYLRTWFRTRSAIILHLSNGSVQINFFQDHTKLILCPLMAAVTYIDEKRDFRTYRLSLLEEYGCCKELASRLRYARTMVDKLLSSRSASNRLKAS
UniProt O95347: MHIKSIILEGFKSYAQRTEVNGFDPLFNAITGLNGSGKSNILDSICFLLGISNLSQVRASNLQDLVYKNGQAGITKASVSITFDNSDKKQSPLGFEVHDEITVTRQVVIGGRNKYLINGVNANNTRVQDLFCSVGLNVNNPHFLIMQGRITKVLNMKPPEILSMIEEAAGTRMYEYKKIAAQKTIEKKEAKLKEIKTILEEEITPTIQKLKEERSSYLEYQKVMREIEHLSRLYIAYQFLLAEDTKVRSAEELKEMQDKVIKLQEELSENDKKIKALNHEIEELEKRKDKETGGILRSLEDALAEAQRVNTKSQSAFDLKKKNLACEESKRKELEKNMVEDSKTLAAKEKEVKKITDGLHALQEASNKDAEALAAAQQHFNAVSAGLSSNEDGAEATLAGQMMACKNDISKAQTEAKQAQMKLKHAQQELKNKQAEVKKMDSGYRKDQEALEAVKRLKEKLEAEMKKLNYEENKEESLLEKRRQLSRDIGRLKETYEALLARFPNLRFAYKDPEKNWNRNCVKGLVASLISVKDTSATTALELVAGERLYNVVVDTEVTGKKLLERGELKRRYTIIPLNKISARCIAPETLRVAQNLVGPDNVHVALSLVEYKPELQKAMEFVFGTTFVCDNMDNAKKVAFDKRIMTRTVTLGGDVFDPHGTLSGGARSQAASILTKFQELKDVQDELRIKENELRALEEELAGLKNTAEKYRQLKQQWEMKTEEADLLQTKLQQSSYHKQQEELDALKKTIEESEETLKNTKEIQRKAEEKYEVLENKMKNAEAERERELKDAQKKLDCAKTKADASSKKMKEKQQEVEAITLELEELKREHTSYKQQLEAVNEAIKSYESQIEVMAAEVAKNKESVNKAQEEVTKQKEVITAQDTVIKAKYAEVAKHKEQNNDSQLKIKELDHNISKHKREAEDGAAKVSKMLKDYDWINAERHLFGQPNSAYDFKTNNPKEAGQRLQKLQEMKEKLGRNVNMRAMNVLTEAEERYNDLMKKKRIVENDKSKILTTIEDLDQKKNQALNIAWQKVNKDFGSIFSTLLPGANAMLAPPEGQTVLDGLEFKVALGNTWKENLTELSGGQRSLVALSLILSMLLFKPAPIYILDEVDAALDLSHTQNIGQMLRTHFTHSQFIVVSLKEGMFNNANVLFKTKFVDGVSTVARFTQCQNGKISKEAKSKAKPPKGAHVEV

Holding throughout (experiment): co-IP
Test [1] deals with T1, 1×Flag-ADAR1p110 (Adenosine Deaminase Acting on RNA 1 p110) (UniProt P55265).
T1 sequence: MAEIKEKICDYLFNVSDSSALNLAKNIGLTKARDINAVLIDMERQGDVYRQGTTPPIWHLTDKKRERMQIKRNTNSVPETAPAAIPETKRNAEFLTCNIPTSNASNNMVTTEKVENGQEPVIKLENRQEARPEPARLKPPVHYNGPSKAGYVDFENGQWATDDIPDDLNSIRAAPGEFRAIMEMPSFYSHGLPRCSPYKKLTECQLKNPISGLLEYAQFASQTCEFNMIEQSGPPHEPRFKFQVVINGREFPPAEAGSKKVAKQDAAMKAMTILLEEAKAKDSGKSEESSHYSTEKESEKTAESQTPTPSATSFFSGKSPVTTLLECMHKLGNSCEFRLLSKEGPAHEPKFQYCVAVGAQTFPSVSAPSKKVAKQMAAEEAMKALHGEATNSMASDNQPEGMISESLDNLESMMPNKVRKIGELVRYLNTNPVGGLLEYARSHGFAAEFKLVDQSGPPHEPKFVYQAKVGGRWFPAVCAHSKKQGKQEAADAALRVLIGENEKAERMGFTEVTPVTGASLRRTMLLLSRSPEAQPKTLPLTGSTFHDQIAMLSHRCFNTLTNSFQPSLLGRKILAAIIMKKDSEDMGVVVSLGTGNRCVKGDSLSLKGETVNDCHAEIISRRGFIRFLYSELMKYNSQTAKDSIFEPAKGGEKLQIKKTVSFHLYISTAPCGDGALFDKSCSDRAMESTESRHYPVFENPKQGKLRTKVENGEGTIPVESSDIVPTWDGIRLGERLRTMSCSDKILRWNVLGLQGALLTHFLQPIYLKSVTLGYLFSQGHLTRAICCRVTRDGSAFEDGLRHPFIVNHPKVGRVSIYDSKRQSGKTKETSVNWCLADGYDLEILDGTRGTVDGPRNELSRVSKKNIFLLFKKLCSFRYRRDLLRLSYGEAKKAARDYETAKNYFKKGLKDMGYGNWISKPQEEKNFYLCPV

Test [2] deals with Structural Maintenance of Chromosome 3 (SMC3) (human (endogenous in HeLa)) (UniProt Q9UQE7).
Test [3] has as its target T1, 1×Flag-ADAR1p110 (Adenosine Deaminase Acting on RNA 1 p110). The source holds these as a separate data set.

Regarding “PLK1 (from UniProt P53350 1-603) (enzyme)”, the binding result in test [1] is “binds”.

Regarding SMC2 (from UniProt O95347 1-1197), the binding result in test [1] is listed as “binds”.

For “Structural Maintenance of Chromosome 3 (SMC3) (from UniProt Q9UQE7 1-1217)”, the binding entry in test [1] is “binds”.

B1: 1×Flag-ADAR1p110 (Adenosine Deaminase Acting on RNA 1 p110) (enzyme, UniProt P55265-5 1-931)
chain: T1 sequence
B1: the binding result in test [2] was “binds”.

B2: CDC25C (enzyme, UniProt P30307 1-473)
chain: MSTELFSSTREEGSSGSGPSFRSNQRKMLNLLLERDTSFTVCPDVPRTPVGKFLGDSANLSILSGGTPKRCLDLSNLSSGEITATQLTTSADLDETGHLDSSGLQEVHLAGMNHDQHLMKCSPAQLLCSTPNGLDRGHRKRDAMCSSSANKENDNGNLVDSEMKYLGSPITTVPKLDKNPNLGEDQAEEISDELMEFSLKDQEAKVSRSGLYRSPSMPENLNRPRLKQVEKFKDNTIPDKVKKKYFSGQGKLRKGLCLKKTVSLCDITITQMLEEDSNQGHLIGDFSKVCALPTVSGKHQDLKYVNPETVAALLSGKFQGLIEKFYVIDCRYPYEYLGGHIQGALNLYSQEELFNFFLKKPIVPLDTQKRIIIVFHCEFSSERGPRMCRCLREEDRSLNQYPALYYPELYILKGGYRDFFPEYMELCEPQSYCPMHHQDHKTELLRCRSQSKVQEGERQLREQIALLVKDMSP
Turning to B2, the binding entry in test [3] was “no binding”.
